Data reported in PubChem BioAssay AID1347076 (National Center for Advancing Translational Sciences (NCATS), 2019).
Hit rate of the full screen: of about 400,000 compounds, about 13,000 (3.2%) were called active. Inconclusive means that the source gave no clear call. Such entries were picked first, then a sample of the others. Calls come from the whole dose curve; as a rule, active = well fitted cell-killing curve with a large enough effect; inconclusive = small, poorly fitted or top-dose-only effect, or effect the other way; inactive = flat fitted curve, though single readings scatter. Potencies beside an inconclusive call are fits to weak or partial responses and may not hold up.

experiment: qHTS assay for MDR1-selective chemotherapeutics: Primary screen using the drug-selected MDR subline cells KB-V1; settings: KB-V1 MDR cells viability, CellTiter-Glo, 72 h; series mostly up to 46.1 µM; note: nearly all actives have a fitted effect of over 60% in size
Summary of the method: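 KB-V1, DMEM (no phenol red) + 10% FBS; cpd pin-transferred, titration series; 72 h, 37 degrees C; CellTiter-Glo, luminescence. Data normalized, curve-fit.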
Potency is the fitted concentration of half-maximal effect.

Row | SMILES | Potency
1 | CNC(=O)c1c(Cl)cnn1-c1ccc(F)cc1 | inconclusive: 3.66 µM [rising, full curve]
2 | Cc1cc(C)c(C(=O)N2CCCC(N3CCN(c4ccc(F)cc4)CC3)C2)o1 (stereo not drawn) | inconclusive: 7.31 µM [cytotoxic, partial curve]
3 | CCOc1ccc(C(c2c(O)cc(C)n(CCOC)c2=O)N2CCN(c3ccc(F)cc3)CC2)cc1 (stereo not drawn) | inconclusive: 29.1 µM [rising, single point]
4 | O=S(=O)(c1cccc(NC(=S)Nc2ccc(Br)cc2Cl)c1)N1CCOCC1 | inconclusive: 2.91 µM [rising, partial curve, poor fit]
5 | O=C(CCC1CCCN(C(=O)C2(c3ccccc3)CC2)C1)N1CCN(c2ccccn2)CC1 (stereo not drawn) | inconclusive: 4.61 µM [cytotoxic, partial curve, poor fit]
6 | O=C(c1ccc(-c2cccc(C(F)(F)F)c2)o1)N1CCN(c2ccccc2O)CC1 | inconclusive: 23.1 µM [cytotoxic, single point]
7 | O=C(NC(=S)N1CCc2ccccc21)c1ccccc1 | inconclusive: 20.6 µM [cytotoxic, single point]
8 | CCN(C1CCS(=O)(=O)C1)S(=O)(=O)c1ccc(Cl)s1 (stereo not drawn) | inconclusive: 5.17 µM [rising, full curve]
9 | CC(=O)N1CCc2c(sc3c2c(=O)n(-c2cc(Cl)ccc2C)c(=O)n3C)C1 | inconclusive: 0.0052 µM [cytotoxic, full curve, poor fit]
10 | C=CCc1c(C)nc(-c2ccccc2)nc1N/N=C(\C)c1ccccc1 | inconclusive: 16.4 µM [cytotoxic, single point]
11 | CCCC(c1nnnn1CC(=O)OCC)N(Cc1cc2c(C)cc(C)cc2[nH]c1=O)C1CCCC1 (stereo not drawn) | inconclusive: 8.2 µM [cytotoxic, partial curve]
12 | Cc1ccc(NC(=O)c2cccc(-n3cnnn3)c2)cc1Cl | inactive
13 | CC1CCCN(C(=O)CNS(=O)(=O)c2cccs2)C1 (stereo not drawn) | inconclusive: 32.6 µM [rising, single point]
14 | Cc1ccc(S(=O)(=O)n2nccc2-c2c(-c3ccccc3)noc2C)cc1 | inconclusive: 9.2 µM [cytotoxic, partial curve]
15 | CCN(CC)S(=O)(=O)c1ccc2oc(C(=O)N3CCc4ccccc4C3)c(C)c2c1 | active: 9.2 µM
16 | O=C(NCCN1CCOCC1)c1c(O)nc2ccccn2c1=O | inactive
17 | COc1ccc(NCc2nnc(SCc3ccc(Cl)cc3)n2-c2ccccc2)cc1 | inconclusive: 32.6 µM [cytotoxic, partial curve, poor fit]
18 | Cc1c(NC(=O)c2cc(C3CC3)on2)c(=O)n(-c2ccccc2)n1C | inconclusive: 29.1 µM [rising, single point]

Random excerpt: 2 entries already listed.
Row | SMILES | Potency
6 | O=C(c1ccc(-c2cccc(C(F)(F)F)c2)o1)N1CCN(c2ccccc2O)CC1 | inconclusive: 23.1 µM [cytotoxic, single point]
1 | CNC(=O)c1c(Cl)cnn1-c1ccc(F)cc1 | inconclusive: 3.66 µM [rising, full curve]
